Source: patent US10383333B2, “Carbamate compound and use thereof” (SUMITOMO CHEMICAL COMPANY, LIMITED, priority 2015, dated 2019)
Some entries share one result that the patent states for a list of compounds.

What was measured:
Format in all cases: in vivo
[1] = test system: kidney bean stem rot fungus (Sclerotinia sclerotiorum); assay: Test Example 4: kidney bean stem rot, foliar spray before inoculation; conditions: 500 ppm foliar spray on kidney bean (Nagauzura Saitou), assessed 4 days after inoculation, formulated per Formulation Example 6
[2] = test system: wheat rust fungus (Puccinia recondita); assay: Test Example 2: wheat rust, foliar spray before inoculation; conditions: 500 ppm foliar spray on wheat (Shirogane), inoculated 5 days after spraying, formulated per Formulation Example 6
[3] = test system: rice blast fungus (Magnaporthe grisea); conditions: 500 ppm foliar spray on rice (Nipponbare), contact with infected seedling for 6 days, formulated per Formulation Example 6
[4] = test system: barley net blotch fungus (Pyrenophora teres); assay: Test Example 1: barley net blotch, foliar spray before inoculation; conditions: 500 ppm foliar spray on barley (Mikamo-Golden), inoculated 2 days after spraying, formulated per Formulation Example 6
[5] = test system: Cercospora leaf spot (Cercospora sojina); assay: Test Example 7: soybean Cercospora leaf spot, foliar spray after inoculation; conditions: 200 ppm foliar spray on soybean (Tachinagaha) five days after inoculation, assessed after 14 days, formulated per Formulation Example 6

| Structure (SMILES) | area of the lesion relative to untreated kidney bean [1] [%] | area of the lesion relative to untreated wheat [2] [%] | area of the lesion relative to non-treated plant [3] [%] | area of the lesion relative to untreated barley [4] [%] | area of the lesion relative to untreated soybean [5] [%] |
| --- | --- | --- | --- | --- | --- |
| COC(=O)Nc1cccc(C)c1COc1cc(C)c(-c2ccc(F)cn2)cc1C [Present Compound 11] | ≤ 30 | – | – | – | – |
| COC(=O)Nc1ccccc1COc1ccc(-c2ccc(F)c(C)n2)cc1C [Present Compound 1] | ≤ 30 | ≤ 30 | ≤ 30 | – | – |
| COC(=O)Nc1cc(C)ccc1COc1ccc(-c2ccc(F)cn2)cc1C [Present Compound 9] | ≤ 30 | – | – | ≤ 30 | – |
| COC(=O)Nc1cccc(C)c1COc1ccc(-c2ccc(F)c(C)n2)cc1C [Present Compound 5] | – | – | – | – | ≤ 30 |
